Reference: PMC5055951
No constants are given. Whether binding was seen depends on the method and setting. Binding seen in cells or lysates may run through a third protein. Some binding calls cover weakened binding; strength is not graded here.

Sequences of proteins named here, by UniProt entry; tags and fusion partners are left off.
UniProt P08758: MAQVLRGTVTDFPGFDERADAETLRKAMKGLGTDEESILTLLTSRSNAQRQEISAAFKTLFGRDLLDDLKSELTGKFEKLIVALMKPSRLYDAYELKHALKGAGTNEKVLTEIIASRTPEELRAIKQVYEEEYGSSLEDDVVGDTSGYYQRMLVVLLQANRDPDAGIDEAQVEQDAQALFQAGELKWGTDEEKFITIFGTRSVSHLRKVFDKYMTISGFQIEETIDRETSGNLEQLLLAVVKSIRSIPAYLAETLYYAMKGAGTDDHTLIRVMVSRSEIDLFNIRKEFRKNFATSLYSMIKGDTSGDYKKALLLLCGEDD
UniProt Q12791: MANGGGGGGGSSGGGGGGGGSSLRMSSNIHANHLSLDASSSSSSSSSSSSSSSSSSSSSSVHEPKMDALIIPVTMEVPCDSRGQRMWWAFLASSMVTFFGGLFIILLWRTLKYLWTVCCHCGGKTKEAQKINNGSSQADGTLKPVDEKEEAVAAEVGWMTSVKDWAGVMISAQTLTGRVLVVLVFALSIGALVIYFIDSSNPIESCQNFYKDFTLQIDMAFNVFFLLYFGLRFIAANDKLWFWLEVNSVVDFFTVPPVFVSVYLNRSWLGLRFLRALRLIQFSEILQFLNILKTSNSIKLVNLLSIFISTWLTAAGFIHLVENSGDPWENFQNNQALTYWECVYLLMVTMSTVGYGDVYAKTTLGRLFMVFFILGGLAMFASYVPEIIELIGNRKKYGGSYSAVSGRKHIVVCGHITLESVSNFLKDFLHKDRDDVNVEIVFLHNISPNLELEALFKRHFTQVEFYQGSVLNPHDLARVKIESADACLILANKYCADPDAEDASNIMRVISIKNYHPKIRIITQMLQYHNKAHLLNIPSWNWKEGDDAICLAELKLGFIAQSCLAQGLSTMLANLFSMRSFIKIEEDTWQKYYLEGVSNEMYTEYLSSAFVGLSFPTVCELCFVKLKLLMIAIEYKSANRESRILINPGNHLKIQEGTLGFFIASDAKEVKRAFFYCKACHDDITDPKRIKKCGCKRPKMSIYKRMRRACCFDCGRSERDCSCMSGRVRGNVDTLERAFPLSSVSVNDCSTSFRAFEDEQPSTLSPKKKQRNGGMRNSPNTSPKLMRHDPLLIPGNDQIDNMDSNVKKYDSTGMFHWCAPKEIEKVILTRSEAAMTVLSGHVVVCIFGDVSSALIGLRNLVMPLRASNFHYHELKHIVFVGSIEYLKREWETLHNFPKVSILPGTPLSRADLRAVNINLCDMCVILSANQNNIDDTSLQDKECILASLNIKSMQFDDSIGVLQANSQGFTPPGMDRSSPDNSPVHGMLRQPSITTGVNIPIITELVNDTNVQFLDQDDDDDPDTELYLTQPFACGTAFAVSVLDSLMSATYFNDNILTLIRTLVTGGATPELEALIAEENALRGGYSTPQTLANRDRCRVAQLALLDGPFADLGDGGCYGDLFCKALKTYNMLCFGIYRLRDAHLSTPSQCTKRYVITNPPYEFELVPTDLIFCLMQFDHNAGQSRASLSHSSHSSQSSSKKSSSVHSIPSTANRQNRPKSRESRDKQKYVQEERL

How the values were obtained:
[1] = target: annexin A5 (ANXA5) (human (endogenous in HEK 293)) (UniProt P08758); experiment: co-IP; reciprocal: anti-BKCa α or anti-ANXA5 antibody on Protein G Dynabeads, precleared RIPA lysate of HEK 293 cells, 1 h at room temperature, washed 3 times in PBS, eluted with 0.1 M citrate pH 2-3, western blot; bead control without antibody
[2] = target: α subunit of the large conductance, voltage- and Ca2+-activated potassium channel (BKCa α) (human) (UniProt Q12791); experiment: as above

Substance | binding [1] | binding [2]
α subunit of the large conductance, voltage- and Ca2+-activated potassium channel (BKCa α) (from UniProt Q12791 1-1236) | binds | 
annexin A5 (ANXA5) (from UniProt P08758 1-320) |  | binds
